Measurements: patent US20250170130A1, “MODULATORS OF MYC FAMILY PROTO-ONCOGENE PROTEIN” (Nalo Therapeutics, priority 2022, published 2025)
The name of at least one read-out is uncertain.

By UniProt entry, the sequences of proteins in these tests, tags left out. Where a name states a change or a piece, a line headed by the entry shows the natural chain unless it says otherwise.
UniProt P01106: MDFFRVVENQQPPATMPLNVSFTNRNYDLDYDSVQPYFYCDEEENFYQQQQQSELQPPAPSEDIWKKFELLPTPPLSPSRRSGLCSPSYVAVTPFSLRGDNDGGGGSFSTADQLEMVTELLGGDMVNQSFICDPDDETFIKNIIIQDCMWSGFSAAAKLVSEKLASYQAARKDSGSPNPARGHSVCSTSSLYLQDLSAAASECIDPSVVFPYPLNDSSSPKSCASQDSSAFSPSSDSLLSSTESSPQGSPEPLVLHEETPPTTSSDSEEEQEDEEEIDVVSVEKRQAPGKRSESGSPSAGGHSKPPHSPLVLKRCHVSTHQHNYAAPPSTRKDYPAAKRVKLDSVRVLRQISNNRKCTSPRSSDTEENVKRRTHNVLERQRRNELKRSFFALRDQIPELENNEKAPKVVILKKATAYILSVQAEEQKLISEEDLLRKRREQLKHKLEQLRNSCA

Columns and labels:
MycC = target: T1, MycC (Homo sapiens, UniProt P01106); experiment: Degradation of MycC protein in L363 cells, JESS/Western blot of lysates; type: cell-based; details: L-363 cells
T1 construct: endogenous in cells; host or cells: L363
Procedure: For L363 cells (suspension), 1E6 cells were plated into each well of a 6 well plate. For SK-N-BE(2) cells (adherent), 5E5 cells were plated into each well of a 6 well dish. […] All compounds were diluted to 10 mM in DMSO. Cells were treated with the compound for 24 hrs, then for both cell types, media containing cells were removed from wells into a 15 ml centrifuge tube, and remaining adherent SK-N-BE(2) cells were also scraped from the wells into the appropriate tubes. Tubes were centrifuged, cells were washed with PBS then re-centrifuged to pellet cells. A RIPA buffer cocktail was added to the cells on ice for 5 mins. Cell lysates were clarified by centrifugation and stored at −80 degrees until required. BCA assay was performed on each lysate to determine the protein concentration.
(§1) Once an appropriate lysate concentration and antibody concentration was determined, samples were screened in the JESS technology (Protein Simple, San Jose, CA—https://www.proteinsimple.com/jess.html).
(§2) Target protein antibodies (n-myc and c-myc) were detected in the chemi-luminescence channel and loading controls (tubulin and GAPDH) were detected using a Near Infra Red (NIR) labeled secondary antibody.
For SK-N-EB2 adherent cells, 5E5 cells in 1.9 mls media were plated into 6 well dishes and incubated for 24 hrs. […] Cells were scrapped off the plate, centrifuged, washed with PBS, centrifuged, then a RIPA buffer cocktail added to the cells (100 ul), centrifuged and stored at −80 for later analysis. For L363 suspension cells, 1E6 cells were plated into […] (950 ul media) and incubated for 24 hrs. […] Cells were aspirated into tubes, centrifuged, washed with PBS, centrifuged, then a RIPA buffer cocktail added to the cells (100 ul), centrifuged and stored at −80 for later analysis.
(§3) For Western blot, a BCA (total protein) assay was run on all samples, these were then run in batches of 5 compounds plus control (DMSO) on each Western blot run—n-myc and c-myc were run in separate experiments in the chemiluminescence channel. Both tubulin and GAPDH were run as loading controls in all lanes in the near infra red channel.

MycN = target: T2, MycN (Homo sapiens, UniProt P04198); experiment: Degradation of MycN protein in SK-N-BE(2) cells, JESS/Western blot of lysates; type: cell-based
T2 construct: endogenous in cells; host or cells: SK-N-BE(2)
T2 sequence (P04198 1-464): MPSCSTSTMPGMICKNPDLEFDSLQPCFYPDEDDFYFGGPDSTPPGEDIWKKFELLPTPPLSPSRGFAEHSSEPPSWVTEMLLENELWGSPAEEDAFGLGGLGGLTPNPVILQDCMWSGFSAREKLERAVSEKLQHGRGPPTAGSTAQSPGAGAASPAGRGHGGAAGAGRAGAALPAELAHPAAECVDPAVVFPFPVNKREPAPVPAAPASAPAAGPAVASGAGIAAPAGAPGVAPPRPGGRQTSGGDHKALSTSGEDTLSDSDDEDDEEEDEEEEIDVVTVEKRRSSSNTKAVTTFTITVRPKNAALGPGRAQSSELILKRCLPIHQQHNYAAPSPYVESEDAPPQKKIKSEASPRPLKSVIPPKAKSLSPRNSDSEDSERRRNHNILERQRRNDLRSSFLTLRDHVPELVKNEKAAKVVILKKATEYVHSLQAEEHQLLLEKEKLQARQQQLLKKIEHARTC
Procedure: For L363 cells (suspension), 1E6 cells were plated into each well of a 6 well plate. For SK-N-BE(2) cells (adherent), 5E5 cells were plated into each well of a 6 well dish. Cells were cultured for 24 hrs then treated with exemplary compounds at […] final assay concentrations plus DMSO control. All compounds were diluted to 10 mM in DMSO. Cells were treated with the compound for 24 hrs, then for both cell types, media containing cells were removed from wells into a 15 ml centrifuge tube, and remaining adherent SK-N-BE(2) cells were also scraped from the wells into the appropriate tubes. Tubes were centrifuged, cells were washed with PBS then re-centrifuged to pellet cells. A RIPA buffer cocktail was added to the cells on ice for 5 mins. Cell lysates were clarified by centrifugation and stored at −80 degrees until required. BCA assay was performed on each lysate to determine the protein concentration.
as §1, §2
For SK-N-EB2 adherent cells, 5E5 cells in 1.9 mls media were plated into 6 well dishes and incubated for 24 hrs. Exemplary compounds were added (100 ul, 1 in 20 dilution in media) to each well (final assay concentration 6, 3, 1 and […]) together with DMSO control wells and incubated for 24 hrs. Cells were scrapped off the plate, centrifuged, washed with PBS, centrifuged, then a RIPA buffer cocktail added to the cells (100 ul), centrifuged and stored at −80 for later analysis. For L363 suspension cells, 1E6 cells were plated into 24 well dishes (950 ul media) and incubated for 24 hrs. Exemplary compounds were added (50 ul, 1 in 20 dilution in media) to each well (final assay concentration 6, 3, 1 and […]) together with DMSO control wells and incubated for 24 hrs. Cells were aspirated into tubes, centrifuged, washed with PBS, centrifuged, then a RIPA buffer cocktail added to the cells (100 ul), centrifuged and stored at −80 for later analysis.
as §3

Row | SMILES | % Degradation of MycC (L-363) 24 h, 1 μM (MycC; listed as 159^a) | % Degradation of MycC (L-363) 24 h, 1 μM (MycC; listed as 159^b) | % Degradation of MycC (L-363) 24 h, 3 μM (MycC; listed as 159^a) | % Degradation of MycC (L-363) 24 h, 3 μM (MycC; listed as 159^b) | % Degradation of MycN (SKNBE2) 24 h, 0.5 μM (MycN; listed as 159^a) | % Degradation of MycN (SKNBE2) 24 h, 0.5 μM (MycN; listed as 159^b) | % Degradation of MycN (SKNBE2) 24 h, 1 μM (MycN; listed as 159^a) | % Degradation of MycN (SKNBE2) 24 h, 1 μM (MycN; listed as 159^b) | % Degradation of MycN (SKNBE2) 24 h, 3 μM (MycN; listed as 159^a) | % Degradation of MycN (SKNBE2) 24 h, 3 μM (MycN; listed as 159^b) | % Degradation of MycC (L-363) 24 h, 6 μM (MycC; listed as 162^a) | % Degradation of MycC (L-363) 24 h, 6 μM (MycC; listed as 162^b) | % Degradation of MycN (SKNBE2) 24 h, 3 μM (MycN; listed as 162^a) | % Degradation of MycN (SKNBE2) 24 h, 3 μM (MycN; listed as 162^b)
1 | CC(N)C1CCCN(c2nccc(Nc3cc(C4CC4)[nH]n3)n2)C1 (single isomer, unassigned) [Compound 159, 2-[3-(1-Aminoethyl)-1-piperidyl]-N-(5-cyclopropyl-1H-pyrazol-3-yl)pyrimidin-4-amine] | **** (degradation 80-100%) | ** (degradation 20-49%) | **** (degradation 80-100%) | ** (degradation 20-49%) | **** (degradation 80-100%) | ** (degradation 20-49%) | **** (degradation 80-100%) | ** (degradation 20-49%) | **** (degradation 80-100%) | *** (degradation 50-79%) |  |  |  | 
2 | CNC(C)C1CCCN(c2nccc(Nc3cc(C4CC4)[nH]n3)n2)C1 (single isomer, unassigned) [Compound 162, N-(5-Cyclopropyl-1H-pyrazol-3-yl)-2-[3-[1-(methylamino)ethyl]-1-piperidyl]pyrimidin-4-amine] |  |  |  |  |  |  |  |  |  |  | **** (degradation 80-100%) | ** (degradation 20-49%) | *** (degradation 50-79%) | **** (degradation 80-100%)
